Measured values taken from the supplement of paper PMC4604168 (melanoma cell lines).
The list shows a part of the results. Single values are uncertain, as repeats are few or missing.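 Cells were imaged in 1,536-well plates, and nuclei stained with an antibody against cleaved PARP were counted against all DNA-stained nuclei to give the apoptosis fraction. Screening doses were chosen to leave most cells alive, and resting and induced cleaved-PARP levels differ strongly between cell lines.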

Experiments:
Assay in all cases: cleaved PARP positive nuclei fraction relative to DMSO control; melanoma cells; higher = more apoptosis
Settings in all cases: library dose: low library concentration; 72 h
COLO792 = system: COLO792
COLO800 = system: COLO800
COLO829 = system: COLO829
G361 = system: G361
IPC-298 = system: IPC-298
IST-MEL1 = system: IST-MEL1
LB2518-MEL = system: LB2518-MEL
LOXIMVI = system: LOXIMVI
MEL-HO = system: MEL-HO

SMILES	cleaved PARP positive nuclei fraction (COLO792) [%]	cleaved PARP positive nuclei fraction (COLO800) [%]	cleaved PARP positive nuclei fraction (COLO829) [%]	cleaved PARP positive nuclei fraction (G361) [%]	cleaved PARP positive nuclei fraction (IPC-298) [%]	cleaved PARP positive nuclei fraction (IST-MEL1) [%]	cleaved PARP positive nuclei fraction (LB2518-MEL) [%]	cleaved PARP positive nuclei fraction (LOXIMVI) [%]	cleaved PARP positive nuclei fraction (MEL-HO) [%]
C[C@@H](N)c1ccc(C(=O)Nc2ccnc3[nH]ccc23)cc1 + c1cc(-c2cnn3cc(-c4ccc(OCCN5CCCCC5)cc4)cnc23)ccn1 [Dorsomorphin] (first compound 0.4 µM, partner dose 0.4 µM)	42.7	86.1	29.5	109	47.1	77.7	60.9	196	
C[C@@H](N)c1ccc(C(=O)Nc2ccnc3[nH]ccc23)cc1 + COc1cc(Nc2ncc(F)c(Nc3ccc4c(n3)NC(=O)C(C)(C)O4)n2)cc(OC)c1OC [Tamatinib] (first compound 0.4 µM, partner dose 0.4 µM)	365	63	160	130	115	87.8	288	410	98.7
Cn1cnc2c(F)c(Nc3ccc(Br)cc3Cl)c(C(=O)NOCCO)cc21 [selumetinib] + Cn1cc(/C=C2\C(=O)Nc3cccnc32)c2ccccc21 [GW441756] (first compound 0.015 µM, partner dose 0.4 µM)	84.2	125	60.6	214	121	40.3	288	38.4	
CS(=O)(=O)c1ccc(C(=O)Nc2ccc(Cl)c(-c3ccccn3)c2)c(Cl)c1 [vismodegib] + CN(C)S(=O)(=O)c1ccc2c(c1)/C(=C/c1cc3c([nH]1)CCCC3)C(=O)N2 [SU6656] (first compound 1 µM, partner dose 0.4 µM)	50.1	124	44	93.7	118	69.5	143	90.7	202
NC1(c2ccc(-c3nc4ccn5c(=O)[nH]nc5c4cc3-c3ccccc3)cc2)CCC1 + O=C(O)C(=O)Nc1sc2c(c1C(=O)O)CCNC2 [TCS401] (first compound 0.4 µM, partner dose 1.66667 µM)	133	116	67.5	107	33.4	45.3	170	64.4	
C[C@]1(O)C[C@@H](c2nc(-c3ccc4ccc(-c5ccccc5)nc4c3)c3c(N)nccn32)C1 + CCN(CC)CCCCNc1ncc2cc(-c3cc(OC)cc(OC)c3)c(NC(=O)NC(C)(C)C)nc2n1 [PD173074] (first compound 0.4 µM, partner dose 0.1 µM)	76.6	125	36.8	62.2	48	53.5	83.4	53.7	
C[C@]1(O)C[C@@H](c2nc(-c3ccc4ccc(-c5ccccc5)nc4c3)c3c(N)nccn32)C1 + CCc1ccc(CCOc2ccc(CC3SC(=O)NC3=O)cc2)nc1 [pioglitazone] (first compound 0.4 µM, partner dose 2 µM)	165	25.3	78.1	83	65.4	92	233	44	
CCCCCCCCc1ccc(CCC(N)(CO)CO)cc1 [fingolimod] + O=C(Nc1ccccc1)c1cc([N+](=O)[O-])ccc1Cl [GW9662] (first compound 2 µM, partner dose 2 µM)	119	24.2	73.8	52	47	176	31	72.7	
CCCCCCCCc1ccc(CCC(N)(CO)CO)cc1 [fingolimod] + COc1ccc(-c2ccc3c(N4CCOCC4)nc(N4C[C@@H](C)O[C@@H](C)C4)nc3n2)cc1CO [KU0063794] (first compound 2 µM, partner dose 0.02 µM)	52.8	179	126	120	50	120	79.7	112	
COc1ccc(C2=N[C@@H](c3ccc(Cl)cc3)[C@@H](c3ccc(Cl)cc3)N2C(=O)N2CCNC(=O)C2)c(OC(C)C)c1 [Nutlin-3] + NCC(=O)Nc1ccc(-n2nc(C(F)(F)F)cc2-c2ccc3c(ccc4ccccc43)c2)cc1 [OSU03012] (first compound 0.1 µM, partner dose 1 µM)	114	235	78.5	163	108	145	48	63.2	29.9
Cn1sc(=O)n(Cc2ccccc2)c1=O + O=S(=O)(c1ccccc1)N(CC(F)(F)F)c1ccc(C(O)(C(F)(F)F)C(F)(F)F)cc1 [T0901317] (first compound 0.4 µM, partner dose 1.4 µM)	115	59.9	186	105	49.9	71.3	59.5	73.3	
CC1(C)CCC(c2ccc(Cl)cc2)=C(CN2CCN(c3ccc(C(=O)NS(=O)(=O)c4ccc(N[C@H](CCN5CCOCC5)CSc5ccccc5)c(S(=O)(=O)C(F)(F)F)c4)cc3)CC2)C1 + NCC(=O)Nc1ccc(-n2nc(C(F)(F)F)cc2-c2ccc3c(ccc4ccccc43)c2)cc1 [OSU03012] (first compound 0.4 µM, partner dose 1 µM)	246	129	140	115	535	203	78.9	291	104

An excerpt from above, showing only cleaved PARP positive nuclei fraction (COLO800) [%] and cleaved PARP positive nuclei fraction (LB2518-MEL) [%].
SMILES	cleaved PARP positive nuclei fraction (COLO800) [%]	cleaved PARP positive nuclei fraction (LB2518-MEL) [%]
CS(=O)(=O)c1ccc(C(=O)Nc2ccc(Cl)c(-c3ccccn3)c2)c(Cl)c1 [vismodegib] + CN(C)S(=O)(=O)c1ccc2c(c1)/C(=C/c1cc3c([nH]1)CCCC3)C(=O)N2 [SU6656] (first compound 1 µM, partner dose 0.4 µM)	124	143
CC1(C)CCC(c2ccc(Cl)cc2)=C(CN2CCN(c3ccc(C(=O)NS(=O)(=O)c4ccc(N[C@H](CCN5CCOCC5)CSc5ccccc5)c(S(=O)(=O)C(F)(F)F)c4)cc3)CC2)C1 + NCC(=O)Nc1ccc(-n2nc(C(F)(F)F)cc2-c2ccc3c(ccc4ccccc43)c2)cc1 [OSU03012] (first compound 0.4 µM, partner dose 1 µM)	129	78.9
